PubChem BioAssay AID1159578 – Peter MacCallum Cancer Centre – 2015

- Aim: 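siRNA pools altering how lymphatic endothelial cells close a scratch wound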 (primary screen)
- System: human lymphatic endothelial cells
- Reagent: siRNA pool against human genes, 40 nM
- Timing: 48 h after transfection
- Measurement: 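Cells stained with dye and imaged after a scratch; covered wound area and nuclei counted, duplicates averaged, migration set against mock wells and turned into a robust z-score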
- Scale: migration robust z-score: higher = faster migration into the scratch; nuclei per well: higher = more cells in the well
- Active means: 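Pools averaging fewer than 3300 nuclei are never called; remaining pools count as changed when migration robust z lies outside -2 to 2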
- Calls: active = migration changed; inactive = no migration change, or too few cells
The deposit covers about 18,000 reagents; shown is a part drawn at random. About 1,030 of all reagents (5.7%) count as active. 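Inactive calls also include pools with fewer than 3300 nuclei, whose migration was not assessed.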 Raw values vary from plate to plate and are shown uncorrected. A number with no mark means an inactive call. Further read-outs or replicates are left out here.

With LOXL3 (lysyl oxidase like 3), how do the results read?
migration robust z-score: 0.5; migration class with cell-count check: migration z between -2 and 2; enough cells; nuclei per well, duplicate mean: 5190

What did the screen give for ALG1 (ALG1 chitobiosyldiphosphodolichol beta-mannosyltransferase)?
migration robust z-score: -0.7; migration class with cell-count check: migration z between -2 and 2; enough cells; nuclei per well, duplicate mean: 5762

What is on record for HOOK3 (hook microtubule tethering protein 3)?
migration robust z-score: -0.39; migration class with cell-count check: migration z between -2 and 2; enough cells; nuclei per well, duplicate mean: 6524

What did the screen give for ITGB3BP (integrin subunit beta 3 binding protein)?
migration robust z-score: 0.94; migration class with cell-count check: migration z between -2 and 2; enough cells; nuclei per well, duplicate mean: 6854

What did the screen give for ANKRD13D (ankyrin repeat domain 13D)?
migration robust z-score: -0.33; migration class with cell-count check: migration z between -2 and 2; enough cells; nuclei per well, duplicate mean: 6706

How did the screen score GTPBP1 (GTP binding protein 1)?
migration robust z-score: -0.26; migration class with cell-count check: migration z between -2 and 2; enough cells; nuclei per well, duplicate mean: 5517

What did the screen give for PXK (PX domain containing serine/threonine kinase like)?
migration robust z-score: -0.08; migration class with cell-count check: migration z between -2 and 2; enough cells; nuclei per well, duplicate mean: 4696

What did the screen give for TRIM77 (tripartite motif containing 77)?
migration robust z-score: 0.34; migration class with cell-count check: migration z between -2 and 2; enough cells; nuclei per well, duplicate mean: 6296

For ALKBH8 (alkB homolog 8, tRNA methyltransferase), what does the deposit list?
migration robust z-score: 0.69; migration class with cell-count check: migration z between -2 and 2; enough cells; nuclei per well, duplicate mean: 5946

Which result is listed for OSBPL3 (oxysterol binding protein like 3)?
migration robust z-score: -0.36; migration class with cell-count check: migration z between -2 and 2; enough cells; nuclei per well, duplicate mean: 5496

What is on record for ZNF133 (zinc finger protein 133)?
migration robust z-score: -1.53; migration class with cell-count check: migration z between -2 and 2; enough cells; nuclei per well, duplicate mean: 6928

With LARP7 (La ribonucleoprotein 7, transcriptional regulator), what does the deposit list?
migration robust z-score: -0.36; migration class with cell-count check: migration z between -2 and 2; enough cells; nuclei per well, duplicate mean: 5784

How did the screen score SEPTIN5 (septin 5)?
migration robust z-score: -0.34; migration class with cell-count check: migration z between -2 and 2; enough cells; nuclei per well, duplicate mean: 4997

For BAZ2B (bromodomain adjacent to zinc finger domain 2B), how do the results read?
migration robust z-score: -0.24; migration class with cell-count check: migration z between -2 and 2; enough cells; nuclei per well, duplicate mean: 5330

For CLDND1 (claudin domain containing 1), how do the results read?
migration robust z-score: -0.39; migration class with cell-count check: migration z between -2 and 2; enough cells; nuclei per well, duplicate mean: 4774

What is on record for GSTA4 (glutathione S-transferase alpha 4)?
migration robust z-score: -0.18; migration class with cell-count check: migration z between -2 and 2; enough cells; nuclei per well, duplicate mean: 5556

With MFAP3L (microfibril associated protein 3 like), how do the results read?
migration robust z-score: -1.27; migration class with cell-count check: migration z between -2 and 2; enough cells; nuclei per well, duplicate mean: 5408

With TOMM20L (translocase of outer mitochondrial membrane 20 like), what was measured?
migration robust z-score: 0.43; migration class with cell-count check: migration z between -2 and 2; enough cells; nuclei per well, duplicate mean: 5114

How did the screen score TRIM29 (tripartite motif containing 29)?
migration robust z-score: 0.99; migration class with cell-count check: migration z between -2 and 2; enough cells; nuclei per well, duplicate mean: 6636

How did the screen score COX8A (cytochrome c oxidase subunit 8A)?
migration robust z-score: -0.96; migration class with cell-count check: migration z between -2 and 2; enough cells; nuclei per well, duplicate mean: 5822

What is on record for HIBADH (3-hydroxyisobutyrate dehydrogenase)?
migration robust z-score: -2.36; migration class with cell-count check: under 3300 nuclei; migration not judged; nuclei per well, duplicate mean: 3058

A portion from the list above, for reference:
TOMM20L (translocase of outer mitochondrial membrane 20 like) | migration robust z-score: 0.43; migration class with cell-count check: migration z between -2 and 2; enough cells; nuclei per well, duplicate mean: 5114
TRIM29 (tripartite motif containing 29) | migration robust z-score: 0.99; migration class with cell-count check: migration z between -2 and 2; enough cells; nuclei per well, duplicate mean: 6636
